From article PMC4743010
Results are given in words; binding and its absence hold for the method and conditions named. For some of these results: Binding seen in cells or lysates may run through a third protein. Some binding calls cover weakened binding; strength is not graded here. For some of these results: Where a sequence is shown, tags or fusion partners need not be part of it.

The chains behind the UniProt entries cited, without tags or fusion partners.
UniProt Q96Q15: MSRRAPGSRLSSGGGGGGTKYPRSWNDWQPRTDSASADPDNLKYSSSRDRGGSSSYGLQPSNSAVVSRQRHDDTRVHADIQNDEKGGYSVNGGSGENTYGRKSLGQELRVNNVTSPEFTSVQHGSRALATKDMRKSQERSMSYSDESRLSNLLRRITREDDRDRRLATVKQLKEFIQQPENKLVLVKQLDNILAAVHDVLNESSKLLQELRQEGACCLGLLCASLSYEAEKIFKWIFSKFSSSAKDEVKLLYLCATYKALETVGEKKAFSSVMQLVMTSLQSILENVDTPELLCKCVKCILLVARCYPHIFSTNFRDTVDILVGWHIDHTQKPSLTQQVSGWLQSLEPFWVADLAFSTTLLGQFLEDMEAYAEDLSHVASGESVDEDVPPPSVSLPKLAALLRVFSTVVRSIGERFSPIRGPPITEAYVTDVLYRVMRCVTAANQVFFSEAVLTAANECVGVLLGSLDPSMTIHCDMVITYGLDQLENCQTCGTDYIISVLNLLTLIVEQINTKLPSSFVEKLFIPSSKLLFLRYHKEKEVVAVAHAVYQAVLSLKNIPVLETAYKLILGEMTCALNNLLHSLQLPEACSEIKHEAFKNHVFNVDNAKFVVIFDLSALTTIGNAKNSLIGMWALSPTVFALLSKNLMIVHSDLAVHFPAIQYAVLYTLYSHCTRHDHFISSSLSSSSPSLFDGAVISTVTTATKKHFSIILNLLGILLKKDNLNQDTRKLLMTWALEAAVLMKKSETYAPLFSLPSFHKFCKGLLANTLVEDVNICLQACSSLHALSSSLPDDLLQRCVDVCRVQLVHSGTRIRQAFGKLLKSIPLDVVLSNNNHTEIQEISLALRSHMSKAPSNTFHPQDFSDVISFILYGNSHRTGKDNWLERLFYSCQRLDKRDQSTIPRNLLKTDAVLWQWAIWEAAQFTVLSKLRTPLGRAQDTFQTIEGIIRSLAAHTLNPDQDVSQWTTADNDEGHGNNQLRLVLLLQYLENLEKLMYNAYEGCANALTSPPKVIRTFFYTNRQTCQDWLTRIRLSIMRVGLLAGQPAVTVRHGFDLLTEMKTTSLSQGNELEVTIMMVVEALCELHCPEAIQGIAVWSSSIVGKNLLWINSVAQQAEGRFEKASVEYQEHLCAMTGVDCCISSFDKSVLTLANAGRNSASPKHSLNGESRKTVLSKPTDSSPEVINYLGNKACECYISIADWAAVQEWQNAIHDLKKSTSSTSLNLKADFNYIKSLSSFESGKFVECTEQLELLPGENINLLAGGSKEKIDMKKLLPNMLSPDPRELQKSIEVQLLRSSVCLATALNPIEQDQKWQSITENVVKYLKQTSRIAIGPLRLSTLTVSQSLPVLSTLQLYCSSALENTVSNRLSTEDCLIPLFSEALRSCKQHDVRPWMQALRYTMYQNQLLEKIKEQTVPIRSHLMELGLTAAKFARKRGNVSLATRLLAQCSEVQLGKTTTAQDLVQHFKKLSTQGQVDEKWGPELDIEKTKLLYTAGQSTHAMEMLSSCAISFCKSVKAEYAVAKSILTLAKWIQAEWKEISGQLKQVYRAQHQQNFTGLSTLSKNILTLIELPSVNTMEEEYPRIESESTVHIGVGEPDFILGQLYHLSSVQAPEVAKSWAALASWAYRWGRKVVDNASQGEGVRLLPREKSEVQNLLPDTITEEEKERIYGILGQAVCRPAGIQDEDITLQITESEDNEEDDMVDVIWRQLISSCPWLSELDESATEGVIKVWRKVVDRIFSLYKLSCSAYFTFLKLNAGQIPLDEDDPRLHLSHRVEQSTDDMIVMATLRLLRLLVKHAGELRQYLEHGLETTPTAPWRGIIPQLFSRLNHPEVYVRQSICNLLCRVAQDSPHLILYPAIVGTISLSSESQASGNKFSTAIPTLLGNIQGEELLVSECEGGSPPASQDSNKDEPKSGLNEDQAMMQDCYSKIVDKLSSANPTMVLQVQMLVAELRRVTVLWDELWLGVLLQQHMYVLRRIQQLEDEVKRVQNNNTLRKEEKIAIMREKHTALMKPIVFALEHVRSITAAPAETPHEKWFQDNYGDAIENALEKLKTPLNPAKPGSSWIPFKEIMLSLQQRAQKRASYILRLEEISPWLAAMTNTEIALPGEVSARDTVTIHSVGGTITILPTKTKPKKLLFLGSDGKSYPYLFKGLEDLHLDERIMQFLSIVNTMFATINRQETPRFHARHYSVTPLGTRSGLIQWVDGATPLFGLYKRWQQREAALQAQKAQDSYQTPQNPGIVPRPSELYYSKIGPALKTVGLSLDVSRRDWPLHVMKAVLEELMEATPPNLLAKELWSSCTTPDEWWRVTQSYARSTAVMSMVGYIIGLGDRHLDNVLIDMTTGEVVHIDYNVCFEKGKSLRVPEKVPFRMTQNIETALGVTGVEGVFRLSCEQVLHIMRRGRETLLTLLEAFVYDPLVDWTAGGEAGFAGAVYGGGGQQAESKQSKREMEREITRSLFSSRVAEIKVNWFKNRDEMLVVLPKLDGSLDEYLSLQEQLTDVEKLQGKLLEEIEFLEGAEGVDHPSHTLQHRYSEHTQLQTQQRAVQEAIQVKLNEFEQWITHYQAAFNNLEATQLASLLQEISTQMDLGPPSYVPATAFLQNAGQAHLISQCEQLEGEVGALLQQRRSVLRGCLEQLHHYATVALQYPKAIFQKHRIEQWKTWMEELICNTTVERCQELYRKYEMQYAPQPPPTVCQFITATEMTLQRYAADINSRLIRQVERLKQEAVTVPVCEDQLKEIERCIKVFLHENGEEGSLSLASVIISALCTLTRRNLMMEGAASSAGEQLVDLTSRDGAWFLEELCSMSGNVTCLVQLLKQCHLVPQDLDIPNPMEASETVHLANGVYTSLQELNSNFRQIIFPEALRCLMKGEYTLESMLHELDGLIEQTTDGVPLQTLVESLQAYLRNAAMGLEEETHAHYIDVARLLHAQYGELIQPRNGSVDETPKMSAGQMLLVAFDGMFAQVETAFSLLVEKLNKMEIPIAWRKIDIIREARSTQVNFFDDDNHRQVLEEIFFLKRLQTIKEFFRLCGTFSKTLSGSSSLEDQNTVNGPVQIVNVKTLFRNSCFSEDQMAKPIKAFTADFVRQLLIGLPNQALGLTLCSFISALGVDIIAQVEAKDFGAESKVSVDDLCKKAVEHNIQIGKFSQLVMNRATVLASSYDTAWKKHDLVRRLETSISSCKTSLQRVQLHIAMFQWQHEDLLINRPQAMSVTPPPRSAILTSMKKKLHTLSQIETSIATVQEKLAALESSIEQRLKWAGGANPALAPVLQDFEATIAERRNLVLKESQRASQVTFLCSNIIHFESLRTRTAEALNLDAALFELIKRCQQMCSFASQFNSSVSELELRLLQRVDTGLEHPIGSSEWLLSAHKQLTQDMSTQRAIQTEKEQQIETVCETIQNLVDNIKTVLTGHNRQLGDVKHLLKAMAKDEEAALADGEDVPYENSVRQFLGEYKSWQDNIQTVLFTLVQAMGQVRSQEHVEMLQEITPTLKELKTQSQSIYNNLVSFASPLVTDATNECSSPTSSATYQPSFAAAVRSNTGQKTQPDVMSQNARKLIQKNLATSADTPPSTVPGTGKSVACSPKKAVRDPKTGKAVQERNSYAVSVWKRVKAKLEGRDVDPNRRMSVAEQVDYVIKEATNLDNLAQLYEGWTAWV

Columns and labels:
[1] = molecular target: FLAG-SMG1 (pCMV6-SMG1-MYC-FLAG) (UniProt Q96Q15); experiment: co-IP; sequential: FLAG-SMG1, MYC-UPF1 and T7-DHX34 co-expressed in HEK293T; anti-FLAG IP, FLAG peptide elution, then anti-T7 agarose IP
[2] = molecular target: T1, purified FLAG-tagged full-length UPF1 (UniProt Q92900); experiment: pull-down; co-incubation of purified T7-DHX34 (full-length, ΔCTD, 1–809) with purified FLAG-tagged full-length UPF1 or UPF1 (115–914); performed as described previously (ref. 38); both purified
T1 sequence: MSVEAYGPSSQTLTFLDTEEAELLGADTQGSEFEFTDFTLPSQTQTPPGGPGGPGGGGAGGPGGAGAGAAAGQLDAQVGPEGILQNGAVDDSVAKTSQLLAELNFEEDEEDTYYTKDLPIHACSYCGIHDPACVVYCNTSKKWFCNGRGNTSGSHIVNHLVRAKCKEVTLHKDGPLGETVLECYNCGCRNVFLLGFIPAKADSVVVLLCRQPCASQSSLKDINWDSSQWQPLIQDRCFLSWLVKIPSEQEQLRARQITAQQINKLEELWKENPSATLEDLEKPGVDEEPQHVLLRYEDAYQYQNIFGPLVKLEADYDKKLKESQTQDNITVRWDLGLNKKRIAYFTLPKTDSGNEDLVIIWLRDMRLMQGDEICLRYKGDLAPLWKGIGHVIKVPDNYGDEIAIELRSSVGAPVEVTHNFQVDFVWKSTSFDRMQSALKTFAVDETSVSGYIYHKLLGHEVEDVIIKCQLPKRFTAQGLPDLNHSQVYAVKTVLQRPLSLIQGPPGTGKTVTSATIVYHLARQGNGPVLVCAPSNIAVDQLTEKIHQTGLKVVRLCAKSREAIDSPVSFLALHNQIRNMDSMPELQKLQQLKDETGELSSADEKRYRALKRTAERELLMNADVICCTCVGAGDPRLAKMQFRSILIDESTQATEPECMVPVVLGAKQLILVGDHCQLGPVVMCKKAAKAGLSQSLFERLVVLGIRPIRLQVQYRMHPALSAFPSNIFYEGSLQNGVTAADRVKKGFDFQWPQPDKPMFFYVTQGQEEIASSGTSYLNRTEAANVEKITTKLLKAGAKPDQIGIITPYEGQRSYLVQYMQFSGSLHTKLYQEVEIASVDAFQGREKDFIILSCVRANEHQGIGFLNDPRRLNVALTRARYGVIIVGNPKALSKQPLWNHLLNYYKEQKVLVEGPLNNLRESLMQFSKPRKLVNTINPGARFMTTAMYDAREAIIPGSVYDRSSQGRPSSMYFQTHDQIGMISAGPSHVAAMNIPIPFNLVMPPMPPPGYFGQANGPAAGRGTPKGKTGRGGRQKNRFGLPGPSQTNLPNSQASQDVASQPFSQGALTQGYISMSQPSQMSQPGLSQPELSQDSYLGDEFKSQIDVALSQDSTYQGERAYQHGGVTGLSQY

[3] = molecular target: T2, FLAG-UPF1 (pcIneo-FLAG-UPF1) (UniProt Q92900); experiment: co-IP; FLAG-UPF1 or FLAG-GFP co-transfected with T7-DHX34 constructs in HEK293T; anti-FLAG immunoprecipitates probed for T7-DHX34 constructs
T2 sequence: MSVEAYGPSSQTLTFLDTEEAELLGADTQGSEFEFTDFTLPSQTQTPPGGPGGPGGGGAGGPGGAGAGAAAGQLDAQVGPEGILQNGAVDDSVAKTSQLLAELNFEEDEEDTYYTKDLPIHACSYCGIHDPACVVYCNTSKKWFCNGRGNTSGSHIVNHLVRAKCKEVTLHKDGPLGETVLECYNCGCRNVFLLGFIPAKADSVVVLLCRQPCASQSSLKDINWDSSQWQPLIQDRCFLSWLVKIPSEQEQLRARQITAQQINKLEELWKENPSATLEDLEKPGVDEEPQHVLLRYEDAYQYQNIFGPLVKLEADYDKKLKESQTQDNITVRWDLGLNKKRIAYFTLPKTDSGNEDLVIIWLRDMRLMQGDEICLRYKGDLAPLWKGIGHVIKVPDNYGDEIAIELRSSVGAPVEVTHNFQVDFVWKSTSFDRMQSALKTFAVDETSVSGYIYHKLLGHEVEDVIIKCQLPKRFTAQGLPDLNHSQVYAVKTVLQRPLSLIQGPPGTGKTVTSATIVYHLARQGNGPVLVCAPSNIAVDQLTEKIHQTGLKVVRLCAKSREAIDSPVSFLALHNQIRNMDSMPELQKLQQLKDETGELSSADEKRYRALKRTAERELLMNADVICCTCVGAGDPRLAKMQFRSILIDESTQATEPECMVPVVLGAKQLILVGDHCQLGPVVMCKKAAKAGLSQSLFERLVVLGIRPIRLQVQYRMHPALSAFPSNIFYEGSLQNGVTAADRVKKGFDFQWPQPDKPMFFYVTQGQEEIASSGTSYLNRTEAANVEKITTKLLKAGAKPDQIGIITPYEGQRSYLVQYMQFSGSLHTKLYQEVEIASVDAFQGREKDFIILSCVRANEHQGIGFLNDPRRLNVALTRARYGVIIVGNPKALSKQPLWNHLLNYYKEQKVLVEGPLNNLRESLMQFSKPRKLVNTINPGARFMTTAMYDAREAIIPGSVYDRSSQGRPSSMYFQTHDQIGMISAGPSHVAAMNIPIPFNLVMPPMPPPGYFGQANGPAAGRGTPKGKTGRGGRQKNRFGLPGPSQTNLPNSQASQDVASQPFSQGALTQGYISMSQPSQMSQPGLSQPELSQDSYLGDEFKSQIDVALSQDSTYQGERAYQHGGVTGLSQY

[4] = molecular target: T3, 3XFLAG-UPF1 C126S (pCDNA3-3XFLAG-UPF1 C126S mutant) (UniProt Q92900); experiment: co-IP; sequential: 3XFLAG-UPF1 (wild-type or C126S) with T7-DHX34 or T7-YFP in HEK293T; anti-FLAG IP, FLAG peptide elution, then anti-T7 agarose IP; blot for endogenous SMG1
T3 sequence: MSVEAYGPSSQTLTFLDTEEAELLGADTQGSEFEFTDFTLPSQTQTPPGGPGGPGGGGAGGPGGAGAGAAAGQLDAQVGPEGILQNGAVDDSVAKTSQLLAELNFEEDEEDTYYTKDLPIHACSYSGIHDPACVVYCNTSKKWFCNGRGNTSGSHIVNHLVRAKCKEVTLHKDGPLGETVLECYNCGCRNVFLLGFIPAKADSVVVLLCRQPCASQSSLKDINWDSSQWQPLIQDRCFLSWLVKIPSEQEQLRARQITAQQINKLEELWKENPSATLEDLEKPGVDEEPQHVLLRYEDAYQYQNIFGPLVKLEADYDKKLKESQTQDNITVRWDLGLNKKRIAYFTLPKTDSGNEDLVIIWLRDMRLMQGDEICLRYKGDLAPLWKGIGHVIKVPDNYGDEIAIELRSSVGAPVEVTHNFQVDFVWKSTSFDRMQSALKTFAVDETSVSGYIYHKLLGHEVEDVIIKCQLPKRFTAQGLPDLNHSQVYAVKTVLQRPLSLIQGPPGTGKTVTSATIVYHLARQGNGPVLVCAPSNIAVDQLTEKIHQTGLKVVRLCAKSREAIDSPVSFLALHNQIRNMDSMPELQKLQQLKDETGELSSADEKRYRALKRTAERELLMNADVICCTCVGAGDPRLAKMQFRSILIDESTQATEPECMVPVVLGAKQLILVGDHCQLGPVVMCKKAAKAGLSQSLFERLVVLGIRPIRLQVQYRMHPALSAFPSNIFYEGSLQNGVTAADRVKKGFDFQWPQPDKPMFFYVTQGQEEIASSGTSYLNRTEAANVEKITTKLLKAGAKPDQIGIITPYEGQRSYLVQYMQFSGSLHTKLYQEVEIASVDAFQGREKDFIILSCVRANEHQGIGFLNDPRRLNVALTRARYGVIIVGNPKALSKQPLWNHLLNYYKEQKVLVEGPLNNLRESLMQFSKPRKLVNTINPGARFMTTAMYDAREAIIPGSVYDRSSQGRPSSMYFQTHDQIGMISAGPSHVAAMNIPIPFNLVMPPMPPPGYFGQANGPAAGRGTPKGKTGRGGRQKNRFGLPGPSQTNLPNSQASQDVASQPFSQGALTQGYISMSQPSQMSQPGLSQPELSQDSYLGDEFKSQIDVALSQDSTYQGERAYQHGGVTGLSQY

[5] = molecular target: T4, 3XFLAG-UPF1 wild-type (pCDNA3-3XFLAG-UPF1) (UniProt Q92900); experiment: as above
T4 sequence: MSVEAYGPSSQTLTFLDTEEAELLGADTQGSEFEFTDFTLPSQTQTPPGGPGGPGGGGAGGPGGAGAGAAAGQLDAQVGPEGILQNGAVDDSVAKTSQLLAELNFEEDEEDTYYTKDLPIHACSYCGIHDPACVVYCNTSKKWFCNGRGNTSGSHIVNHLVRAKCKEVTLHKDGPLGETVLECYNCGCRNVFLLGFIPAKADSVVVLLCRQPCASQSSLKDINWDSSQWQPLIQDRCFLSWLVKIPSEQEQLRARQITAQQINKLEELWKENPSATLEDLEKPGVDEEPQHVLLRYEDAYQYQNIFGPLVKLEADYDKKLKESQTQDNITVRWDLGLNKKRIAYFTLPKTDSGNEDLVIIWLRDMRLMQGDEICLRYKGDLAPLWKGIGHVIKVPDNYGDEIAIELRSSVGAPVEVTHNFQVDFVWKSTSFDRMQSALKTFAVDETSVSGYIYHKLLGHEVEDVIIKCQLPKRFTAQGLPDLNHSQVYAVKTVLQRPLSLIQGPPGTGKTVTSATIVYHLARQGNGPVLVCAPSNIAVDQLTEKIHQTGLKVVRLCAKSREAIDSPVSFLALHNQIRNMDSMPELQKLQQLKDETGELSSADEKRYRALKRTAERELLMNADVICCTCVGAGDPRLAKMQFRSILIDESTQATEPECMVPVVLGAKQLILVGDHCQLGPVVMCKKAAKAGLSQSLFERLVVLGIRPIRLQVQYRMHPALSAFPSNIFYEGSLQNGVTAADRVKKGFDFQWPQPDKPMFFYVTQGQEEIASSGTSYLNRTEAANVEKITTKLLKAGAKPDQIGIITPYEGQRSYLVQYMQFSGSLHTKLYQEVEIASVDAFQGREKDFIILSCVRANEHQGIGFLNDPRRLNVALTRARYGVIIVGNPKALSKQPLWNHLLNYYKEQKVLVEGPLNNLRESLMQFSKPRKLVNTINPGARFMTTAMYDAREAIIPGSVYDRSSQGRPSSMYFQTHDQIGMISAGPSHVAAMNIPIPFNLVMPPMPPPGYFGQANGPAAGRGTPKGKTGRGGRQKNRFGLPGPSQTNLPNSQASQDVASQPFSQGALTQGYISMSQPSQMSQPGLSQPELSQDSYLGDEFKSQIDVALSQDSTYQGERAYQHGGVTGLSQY

Measured: binding

B1: T7-DHX34 full-length (enzyme, UniProt Q14147 1-1143)
chain: MPPPRTREGRDRRDHHRAPSEEEALEKWDWNCPETRRLLEDAFFREEDYIRQGSEECQKFWTFFERLQRFQNLKTSRKEEKDPGQPKHSIPALADLPRTYDPRYRINLSVLGPATRGSQGLGRHLPAERVAEFRRALLHYLDFGQKQAFGRLAKLQRERAALPIAQYGNRILQTLKEHQVVVVAGDTGCGKSTQVPQYLLAAGFSHVACTQPRRIACISLAKRVGFESLSQYGSQVGYQIRFESTRSAATKIVFLTVGLLLRQIQREPSLPQYEVLIVDEVHERHLHNDFLLGVLQRLLPTRPDLKVILMSATINISLFSSYFSNAPVVQVPGRLFPITVVYQPQEAEPTTSKSEKLDPRPFLRVLESIDHKYPPEERGDLLVFLSGMAEISAVLEAAQTYASHTQRWVVLPLHSALSVADQDKVFDVAPPGVRKCILSTNIAETSVTIDGIRFVVDSGKVKEMSYDPQAKLQRLQEFWISQASAEQRKGRAGRTGPGVCFRLYAESDYDAFAPYPVPEIRRVALDSLVLQMKSMSVGDPRTFPFIEPPPPASLETAILYLRDQGALDSSEALTPIGSLLAQLPVDVVIGKMLILGSMFSLVEPVLTIAAALSVQSPFTRSAQSSPECAAARRPLESDQGDPFTLFNVFNAWVQVKSERSRNSRKWCRRRGIEEHRLYEMANLRRQFKELLEDHGLLAGAQAAQVGDSYSRLQQRRERRALHQLKRQHEEGAGRRRKVLRLQEEQDGGSSDEDRAGPAPPGASDGVDIQDVKFKLRHDLAQLQAAASSAQDLSREQLALLKLVLGRGLYPQLAVPDAFNSSRKDSDQIFHTQAKQGAVLHPTCVFAGSPEVLHAQELEASNCDGSRDDKDKMSSKHQLLSFVSLLETNKPYLVNCVRIPALQSLLLFSRSLDTNGDCSRLVADGWLELQLADSESAIRLLAASLRLRARWESALDRQLAHQAQQQLEEEEEDTPVSPKEVATLSKELLQFTASKIPYSLRRLTGLEVQNMYVGPQTIPATPHLPGLFGSSTLSPHPTKGGYAVTDFLTYNCLTNDTDLYSDCLRTFWTCPHCGLHAPLTPLERIAHENTCPQAPQDGPPGAEEAALETLQKTSVLQRPYHCEACGKDFLFTPTEVLRHRKQHV
binds: all assays above

B2: T7-DHX34 (1–809) (domain or fragment, UniProt Q14147 1-809)
chain: MPPPRTREGRDRRDHHRAPSEEEALEKWDWNCPETRRLLEDAFFREEDYIRQGSEECQKFWTFFERLQRFQNLKTSRKEEKDPGQPKHSIPALADLPRTYDPRYRINLSVLGPATRGSQGLGRHLPAERVAEFRRALLHYLDFGQKQAFGRLAKLQRERAALPIAQYGNRILQTLKEHQVVVVAGDTGCGKSTQVPQYLLAAGFSHVACTQPRRIACISLAKRVGFESLSQYGSQVGYQIRFESTRSAATKIVFLTVGLLLRQIQREPSLPQYEVLIVDEVHERHLHNDFLLGVLQRLLPTRPDLKVILMSATINISLFSSYFSNAPVVQVPGRLFPITVVYQPQEAEPTTSKSEKLDPRPFLRVLESIDHKYPPEERGDLLVFLSGMAEISAVLEAAQTYASHTQRWVVLPLHSALSVADQDKVFDVAPPGVRKCILSTNIAETSVTIDGIRFVVDSGKVKEMSYDPQAKLQRLQEFWISQASAEQRKGRAGRTGPGVCFRLYAESDYDAFAPYPVPEIRRVALDSLVLQMKSMSVGDPRTFPFIEPPPPASLETAILYLRDQGALDSSEALTPIGSLLAQLPVDVVIGKMLILGSMFSLVEPVLTIAAALSVQSPFTRSAQSSPECAAARRPLESDQGDPFTLFNVFNAWVQVKSERSRNSRKWCRRRGIEEHRLYEMANLRRQFKELLEDHGLLAGAQAAQVGDSYSRLQQRRERRALHQLKRQHEEGAGRRRKVLRLQEEQDGGSSDEDRAGPAPPGASDGVDIQDVKFKLRHDLAQLQAAASSAQDLSREQLALLKLVLGRGLY
binds: [2] | [3]
